Laboratory results as given in PMC13485503.
No constants are given. Whether binding was seen depends on the method and setting. In cells and extracts the contact can be indirect. Some entries that bind do so weakly or less than the wild type.

Protein sequences, listed by entry. Tags and fused reporters are not part of them. Lines headed by an entry give the natural chain unless they say otherwise; changes in a name come on top.
UniProt Q9EPK5: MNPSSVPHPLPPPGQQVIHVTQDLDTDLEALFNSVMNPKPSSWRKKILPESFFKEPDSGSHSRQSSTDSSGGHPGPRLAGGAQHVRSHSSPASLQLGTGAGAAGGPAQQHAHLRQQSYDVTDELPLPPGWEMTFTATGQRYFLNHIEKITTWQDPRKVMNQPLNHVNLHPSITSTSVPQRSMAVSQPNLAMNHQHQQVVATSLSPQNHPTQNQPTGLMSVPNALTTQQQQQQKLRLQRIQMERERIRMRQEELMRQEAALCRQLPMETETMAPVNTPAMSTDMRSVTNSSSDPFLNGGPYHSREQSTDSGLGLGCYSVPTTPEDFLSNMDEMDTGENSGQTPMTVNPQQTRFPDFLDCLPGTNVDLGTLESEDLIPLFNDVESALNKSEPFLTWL
UniProt P0C0S6: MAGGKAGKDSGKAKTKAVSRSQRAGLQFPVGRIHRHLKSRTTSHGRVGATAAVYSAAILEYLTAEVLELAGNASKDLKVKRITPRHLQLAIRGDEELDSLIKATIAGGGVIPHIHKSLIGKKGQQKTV

Target: Transcriptional co-activator with PDZ-binding motif (TAZ) (mouse (endogenous in TC-1)) (UniProt Q9EPK5)
Experiment: co-IP; TC-1 cell lysates incubated with Protein AG magnetic beads and primary antibody or IgG negative control at 4 °C overnight; three washes; Western blotting

## H2A.Z, a histone H2A variant (from UniProt P0C0S6 1-128)
  binding: binds
